# Hit rate of the full screen: of about 320,000 compounds, about 620 (0.19%) were called active. The shares of active, inactive and inconclusive entries below differ from those in the screen. Rule as the data show it: active = activation above about 80%; inconclusive = between about 30% and that limit; inactive = weaker than that.
# Sequences of proteins named here, by UniProt entry; tags and fusion partners are left off.
# UniProt Q8NER1, whole entry, looked up: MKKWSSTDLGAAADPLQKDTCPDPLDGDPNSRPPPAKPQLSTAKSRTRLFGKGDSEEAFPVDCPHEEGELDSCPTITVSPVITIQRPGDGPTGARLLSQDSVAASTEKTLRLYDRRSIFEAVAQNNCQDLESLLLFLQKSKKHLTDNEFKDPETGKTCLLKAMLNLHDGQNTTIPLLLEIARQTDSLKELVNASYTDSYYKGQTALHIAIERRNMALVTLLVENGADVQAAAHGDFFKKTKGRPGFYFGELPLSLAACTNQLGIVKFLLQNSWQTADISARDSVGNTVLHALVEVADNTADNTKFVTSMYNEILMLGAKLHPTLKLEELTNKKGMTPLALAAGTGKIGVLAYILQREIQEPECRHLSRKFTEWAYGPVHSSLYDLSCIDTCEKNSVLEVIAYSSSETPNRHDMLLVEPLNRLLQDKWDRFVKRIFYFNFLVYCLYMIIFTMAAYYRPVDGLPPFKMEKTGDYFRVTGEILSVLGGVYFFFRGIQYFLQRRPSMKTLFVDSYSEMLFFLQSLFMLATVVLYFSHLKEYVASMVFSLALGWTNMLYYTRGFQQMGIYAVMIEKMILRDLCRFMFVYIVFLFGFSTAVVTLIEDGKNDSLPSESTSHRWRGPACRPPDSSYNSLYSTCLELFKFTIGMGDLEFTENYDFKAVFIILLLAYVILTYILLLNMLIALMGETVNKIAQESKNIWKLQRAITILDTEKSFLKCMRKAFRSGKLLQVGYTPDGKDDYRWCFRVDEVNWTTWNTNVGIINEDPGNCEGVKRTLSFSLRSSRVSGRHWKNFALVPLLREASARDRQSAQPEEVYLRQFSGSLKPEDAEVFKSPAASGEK
# Target: Transient receptor potential cation channel subfamily V member 1 (Homo sapiens) (UniProt Q8NER1)
# Assay: HTS Assay for Compounds that Act as Agonists of the Vanilloid Receptor 1; also: 0% is about no effect
# Settings: TRPV1-expressing cells, Fluo-8 calcium influx, agonist mode; at 8.33 µM, stronger effect = higher value
# Outline: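 Cells expressing TRPV1 were dye-loaded with Fluo-8 and read kinetically: 10 s baseline, 3 min after compound (agonist portion), then 2 min after EC20 capsaicin (allosteric enhancer portion). Calcium-bound dye fluorescence at 480/520 nm.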
row,Structure (SMILES),activation
1,CC(C)OC(=O)c1cccnc1N1CCN(c2ccc(F)cc2)CC1,inconclusive: 45%
2,COc1cc(-c2cc3nc4ccccc4n3c(N)c2C#N)cc(OC)c1OC,inconclusive: 36.9%
3,O=C(/C=C/c1ccc(Cl)cc1)NCCSc1ccccc1,inconclusive: 48.8%
4,Cc1ccc(/C=C/C(=O)Nc2ccc(S(N)(=O)=O)cc2)o1,inconclusive: 67.3%
5,COc1ccc(Cc2[nH]n3c(=O)cc(C(C)C)nc3c2-c2ccccc2)cc1,inactive: 2.47%
6,O=C(Nc1cccnc1)C1CCN(S(=O)(=O)c2cccs2)CC1,inconclusive: 51.6%
7,CCCCNC(=O)CSc1nc(COc2ccccc2)nc2ccccc12,inconclusive: 34%
8,CC(=O)c1c(C)[nH]c(C(=O)NCCC2=CCCCC2)c1C,inconclusive: 34.5%
9,O=[N+]([O-])c1cccc(NC(=S)Nc2nc(-c3ccccc3Cl)cs2)c1,inconclusive: 59.8%
10,Cc1c(C(=O)N2CCN(c3ccc([N+](=O)[O-])cc3)CC2)sc2ncn(CC(=O)N3CCOCC3)c(=O)c12,inactive: -1.55%
11,O=C(COc1ccc(F)cc1)N1CCC(Cc2ccccc2)CC1,inconclusive: 51.2%
12,CCOc1ccccc1NC(=S)NCCc1ccccc1,inconclusive: 39.2%
13,COc1ccc(C(=O)CSc2nc3ncccc3[nH]2)cc1OC,inactive: 3.06%
14,CCNC(=O)COC(=O)Cc1ccc(Cl)cc1Cl,inconclusive: 34.2%
15,O=C(/C=C/C(=O)N1CCc2ccccc2C1)N1CCc2ccccc2C1,inconclusive: 41.6%
16,CC(C)(C)OC(=O)n1cc(CCO)c2ccccc21,inconclusive: 43.1%
17,O=C(COc1ccccc1)NCCSc1ccccc1,inconclusive: 33%
18,S=C(NNC(=S)NC1CC2C=CC1C2)NC1CC2C=CC1C2 (stereo not drawn),inactive: 1.8%
19,O=C(/C=C/c1ccccc1Cl)Nc1ccccc1,inconclusive: 51.1%
20,O=C1S/C(=C/c2ccc(N3CCOCC3)o2)C(=O)N1Cc1c(F)cccc1Cl,inconclusive: 31.2%

# Ordered by molar mass (rising): part of the list above
row,Structure (SMILES),activation
19,O=C(/C=C/c1ccccc1Cl)Nc1ccccc1,inconclusive: 51.1%
8,CC(=O)c1c(C)[nH]c(C(=O)NCCC2=CCCCC2)c1C,inconclusive: 34.5%
6,O=C(Nc1cccnc1)C1CCN(S(=O)(=O)c2cccs2)CC1,inconclusive: 51.6%
2,COc1cc(-c2cc3nc4ccccc4n3c(N)c2C#N)cc(OC)c1OC,inconclusive: 36.9%

# Following part

row,Structure (SMILES),activation
1,Cc1cc(C)nc(N/N=C/c2ccccc2OCc2ccc(Br)cc2)n1,inconclusive: 34%
2,CCCOC(=O)/C(=C\C=C\c1ccco1)NC(=O)c1ccccc1,inconclusive: 36.2%
3,O=C(NCc1ccncc1)C(=O)N/N=C/c1ccccc1OCc1ccccc1,inconclusive: 40.7%
4,O=C(NC(=S)Nc1ccc(F)cc1)C1CCCCC1,inconclusive: 38.9%
5,CCC(C)NC(=O)c1cn(-c2cccc(C)n2)cn1 (stereo not drawn),inactive: 4.66%
6,CC(C)Oc1ccc(N2CC(C(=O)Nc3ccccn3)CC2=O)cc1 (stereo not drawn),inconclusive: 45.5%
7,Cc1ccccc1OCC(=O)NCC(=O)OCC(=O)c1ccc([N+](=O)[O-])cc1,inactive: 2.4%
8,COc1ccc(OCC(=O)Nc2ccc(C)cc2)cc1,inactive: 22.8%
9,Nc1nc(SCC(=O)Nc2cccc(Oc3ccccc3)c2)n[nH]1,inconclusive: 77%
10,CCOC1=C/C(=C/c2c(N)n3nc(S(=O)(=O)CC)sc3nc2=O)C=CC1=O,inactive: 9.78%
11,COc1ccc(S(=O)(=O)N2CCN(C(C)C(=O)Nc3ccc(C(C)C)cc3)CC2)cc1 (stereo not drawn),inconclusive: 33.5%
12,S=c1[nH]nc(-c2cc(-c3ccco3)[nH]n2)n1-c1cccc2ccccc12,inactive: -0.41%
13,Cc1ncoc1C(=O)N1CCCC(CCC(=O)NCc2ccccc2F)C1 (stereo not drawn),inactive: 0.0348%
14,COc1cc(CNCCSc2nnnn2C)cc(OC)c1OC,inactive: -3.25%
15,CCCOc1ccc(C(=O)Nc2cccnc2)cc1,inconclusive: 57.1%
16,CC1CCCC(NC(=S)NC(=O)c2ccccc2Br)C1C (stereo not drawn),inconclusive: 48.7%
17,CC(C)N(Cc1ccccc1)C(=O)CN1C(=O)NC(Cc2ccccc2)(c2ccccc2)C1=O (stereo not drawn),inactive: 3.18%
18,CCOC(=O)c1c(-c2ccc(C)cc2)cn2ccccc12,inconclusive: 55.6%
19,Cc1c(NC(=O)c2ccc(C(C)(C)C)cc2)cccc1[N+](=O)[O-],inconclusive: 79.9%
20,c1ccc(-c2cnn3c(-c4ccccc4)c(-c4ccccc4)nc3n2)cc1,inconclusive: 48.1%

row,Structure (SMILES),activation
1,O=C(NCCC(=O)N(Cc1ccco1)Cc1cccs1)c1ccccc1Cl,inconclusive: 34.4%
2,CCC(C(=O)Nc1cc(OC)c(NC(=O)c2ccccc2)cc1OC)c1ccccc1 (stereo not drawn),inactive: 18.3%
3,COc1cccc(-c2nc(CS(=O)(=O)CC(=O)Nc3cc(C)ccc3C)c(C)o2)c1,inactive: 9.71%
4,O=C(Nc1cccc(Cl)c1N1CCOCC1)c1ccc2c(c1)OCCO2,inconclusive: 32.8%
5,COc1cccc(-c2cc(C(=O)Nc3ccncc3)c3ccccc3n2)c1,inconclusive: 36.4%
6,COCCNC(=O)CCc1c(C)nc2c(c(C)nn2-c2ccc(C)cc2)c1C,active: 85.2%
7,COc1ccc(OC)c(C2=Nn3c(nnc3-c3cc(C)[nH]n3)SC2)c1,inconclusive: 57.3%
8,Cc1cc(OC(C)C)c2c(-c3ccccc3)cc(=O)oc2c1,inconclusive: 45.4%
9,CC(C)(C)C1CCc2sc(C(=O)NNC(=O)CCl)cc2C1 (stereo not drawn),inconclusive: 50.2%
10,CSc1ccccc1NC(=O)CN(C)CC(=O)Nc1c(F)cccc1F,inactive: -0.747%
11,O=C1C(=C(c2ccccc2)c2ccccc2)Nc2ccccc21,inconclusive: 34.2%
12,O=C(CCc1cccc(Cl)c1)N1CCCC(Nc2ccccc2)C1 (stereo not drawn),active: 83.6%
13,CCn1c(-c2cc(-c3cccc(OC)c3)nc3ccccc23)n[nH]c1=S,inconclusive: 38.4%
14,COC(=O)C1=C(C(=O)OC)[C@@H]2N(C)c3ccccc3[C@@]23C[C@@H](C(=O)OC)N(C(=O)c2ccc(Br)cc2)C3=N1,inconclusive: 54.1%
15,Cc1cc(C)n(-c2nc(Nc3ccccc3C)nc(-n3nc(C)cc3C)n2)n1,inactive: 11.4%
16,CCCCC(=O)Nc1cc(C(=O)NCCc2ccccc2)ccc1Cl,inactive: -2.04%
17,CO/N=C(\c1nonc1N)N1CCN(c2ccc(Cl)cc2[N+](=O)[O-])CC1,inconclusive: 38.7%
18,CC(NC(=O)CCC1COc2ccccc2O1)c1ccccc1 (stereo not drawn),inconclusive: 52.5%

# From PubChem BioAssay AID540275 (National Center for Advancing Translational Sciences (NCATS), 2011)
